Test results: patent publication US9486471B2, “Combination therapy for the treatment of cancer” (McMaster University, priority 2012, dated 2016)

Test system: v1H9-Oct4-GFP neoplastic hPSC
Assay: Chemical screening of neoplastic hPSC reporter line (GFP / Hoechst, loss of pluripotency)
Assay type: cell-based, human
Settings: thioridazine vs fluphenazine and prochlorperazine
Procedure: In Vitro Culture Platform for Normal and Neoplastic hPSCs. Chemical screens involved v1H9-Oct4-GFP cells seeded at 5,000 cells per well in mouse embryonic fibroblast conditioned media (MEFCM) supplemented with 8 ng/ml bFGF. 24 hours later the media was exchanged for MEFCM with compounds at 10 μM and 0.1% DMSO, 0.1% DMSO (−BMP4) or 100 ng/ml of BMP4 and 0.1% DMSO (+BMP4) for 48 hours before being exchanged with fresh media with compound for a further 24 h (total compound treatment time 72 h) prior to being fixed and prepared for automated imaging and plate reader analysis. Confluent H9 & fibroblast-derived iPSC were seeded at 10,000 cells per well in MEFCM supplemented with 8 ng/ml bFGF. 24 hours later the cells were treated with compounds at 10 μM and 0.1% DMSO, 0.1% DMSO (−BMP4) or 100 ng/ml of BMP4 and 0.1% DMSO (+BMP4). […] On day 5, hPSC's were fixed and prepared for automated imaging and plate reader analysis. […]
Imaging Neoplastic hPSC. […] Images were acquired at 10× N.A with an Arrayscan HCS VTI Reader (Cellomics) by means of epi-fluorescence illumination and standard filter sets.
Image Analysis. […] For normal cell lines, the fraction of Alexa-Fluor-647-positive cells was quantified. Images and well-level data were stored and analysed in a Columbus Database (Perkin Elmer) and further data analysis, compounds registration and hit identification in ActivityBase (IDBS). […]

**Q.** `CSc1ccc2c(c1)N(CCC1CCCCN1C)c1ccccc1S2` (racemic) [thioridazine, 10-{2-[(RS)-1-Methylpiperidin-2-yl]ethyl}-2-methylsulfanylphenothiazine] was tested. Which “EC50 compared among the three phenothiazines” value did it give?
**A.** lowest EC50
